{
  "source": "patent US11331371B2",
  "about": "“Labyrinthopeptins as anti-viral agents” (Helmholtz-Zentrum Für Infektionsforschung GMBH, priority 2015, dated 2022)",
  "key": {"wild-type RSV (hRSV)": {"system": "wild-type RSV (hRSV)", "settings": "intracellular RSV-P staining, HEp 2 cells, MOI 1, 18 h post infection"}, "TBEV (Toro isolate)": {"system": "TBEV (Toro isolate)", "settings": "Vero-B4 cells, MOI 0.01, 3 days, estimated by visual inspection"}, "[1]": {"system": "GFP-expressing CMV (HCMV) strain pHG-1 (HT8-GFP, AD169-based)", "settings": "3 μM LabyA1, 7 μM LabyA2"}, "ZIKV (Strain MR766-NIID)": {"system": "ZIKV (Strain MR766-NIID)", "settings": "Huh-7.5 cells, MOI 0.5, 48 h, genome copy equivalents"}, "HCV JcR2a": {"system": "HCV JcR2a", "settings": "Huh 7.5 Fluc cells, 4 h inoculation, Renilla luciferase after 48 h"}, "HIV": {"system": "HIV", "settings": "Férir, 2013, PLOS one; cited from earlier work"}, "HSV": {"system": "HSV", "settings": "Férir, 2013, PLOS one; cited from earlier work"}},
  "note": "Part of at least one peptide drawing is inferred or uncertain, most often the ends. Some entries share one result that the patent states for a list of compounds.",
  "data": [
    {"smiles": "C/C=C1\\NC(=O)[C@H](Cc2ccccc2)NC(=O)[C@@H]2CCCN2C(=O)[C@H](C(C)C)NC(=O)[C@H](Cc2c[nH]c3ccccc23)NC(=O)[C@]23CSC[C@H](NC1=O)C(=O)N[C@H](C(=O)O)CSSC[C@H](NC(=O)[C@@H]1CSC[C@]4(C[C@H](N)C(=O)N[C@@H](CC(N)=O)C(=O)N[C@@H](C)C(=O)N4)C(=O)N[C@@H](C(C)C)C(=O)N[C@@H](Cc4c[nH]c5ccccc45)C(=O)N[C@@H](CCC(=O)O)C(=O)N1)C(=O)N[C@@H](C2)C(=O)N[C@@H]([C@@H](C)O)C(=O)NCC(=O)N3", "note": "[LabyA1, Labyrinthopeptin A1]", "values": [
      {"measurement": "IC50 of the anti-viral activity, RSV", "setting": "wild-type RSV (hRSV)", "result": "0.8^1 μg/ml"},
      {"measurement": "IC50 of the anti-viral activity, TBEV", "setting": "TBEV (Toro isolate)", "result": 50, "unit": "µg/mL"},
      {"measurement": "inhibition of infection (CMV)", "setting": "[1]", "result": "> 98", "unit": "%"},
      {"measurement": "IC50 of the anti-viral activity, ZIKV", "setting": "ZIKV (Strain MR766-NIID)", "result": 4.6, "unit": "µg/mL"},
      {"measurement": "IC50 of the anti-viral activity, HCV", "setting": "HCV JcR2a", "result": 2.18, "unit": "µg/mL"},
      {"measurement": "anti-HIV activity in vitro", "setting": "HIV", "result": "sub-micromolar"},
      {"measurement": "anti-HSV activity in vitro", "setting": "HSV", "result": "sub-micromolar"}
    ]}
  ]
}
